# PubChem BioAssay AID1259405 | NCATS, 2018
# Screen: 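Knock-downs that lift recombinant protein yield in hamster ovary cells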 (primary screen)
# Cells: Chinese hamster CHO-K1 ovary cells with stable secreted eGFP expression
# Knock-down reagent: single siRNA against mouse genes, 0.8 pmol siRNA per well (2 µl of 400 nM stock)
# Timing: 3 days
# Detection: 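Per-well intracellular GFP measured by laser scanning cytometry, plus viability from ATP luminescence, each relative to plate median of non-targeting control wells, in %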
# Direction: GFP, % of control: higher = more GFP per well, higher productivity; viability (ATP), % of control: higher = more viable cells (more ATP)
# Call rule: 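a knock-down is called active if GFP reaches 120% or more of non-targeting control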
# The deposit covers about 50,000 reagents; this is an unselected part. Over the whole deposit, about 4,000 (8%) were called active. 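Mouse siRNA library applied to hamster cells; one well for each siRNA.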 A number with no mark means an inactive call. Reagents against one gene are numbered here.
Gene,reagent no.,"GFP, % of control","viability (ATP), % of control"
Rab40b,1,113,124
Rab40b,2,156 (active),89.9
Rab40b,3,92.1,54.9
Capn1,1,60.2,75
Capn1,2,64.2,39.1
Capn1,3,94.8,99.5
Btg1,1,84.4,60.1
Btg1,2,49.4,40.4
Btg1,3,104,126
Ptpro,1,107,71
Ptpro,2,57.6,41.8
Ptpro,3,126 (active),113
Atp6v0e2,1,65.4,57.7
Atp6v0e2,2,119,110
Atp6v0e2,3,67.4,85.3
Plcb4,1,41.3,72.7
Plcb4,2,65.5,68.7
Plcb4,3,91.2,65.2
Dusp7,1,78.3,72.8
Dusp7,2,65.1,48.6
Erp27,1,108,65.8
Erp27,2,72.9,80.8
Erp27,3,32.7,40.6
Or52n4,1,47.5,58.2
Or52n4,2,114,38.5
Or52n4,3,73.4,60.7
Cryga,1,89.3,70.8
Cryga,2,54.9,59.2
Cryga,3,128 (active),117
Spin2c,1,80.3,74.3
Spin2c,2,69.2,72.3
Spin2c,3,94.9,115
Or4k48,1,102,93.1
Or4k48,2,123 (active),87.8
Or4k48,3,51.4,80.5

Entries listed above with an active call, once more:
Gene,reagent no.,"GFP, % of control","viability (ATP), % of control"
Rab40b,2,156 (active),89.9
Ptpro,3,126 (active),113
Cryga,3,128 (active),117
Or4k48,2,123 (active),87.8
